Results taken from paper PMC6707942.

Target: clathrin heavy chain (human (endogenous in DU-145))
Assay: proximity ligation; DU-145 cells treated with His-MDA-7/IL-24 for 30 min, fixed; Duolink PLA kit; primary antibodies (anti-MDA-7/IL-24 and anti-clathrin or anti-caveolae) overnight at 4 °C; signals seen by fluorescence microscope; only the binder purified

binding: binds
B1: His-tagged recombinant MDA-7/IL-24 (ligand, UniProt Q13007 52-206)
chain: QEFHFGPCQVKGVVPQKLWEAFWAVKDTMQAQDNITSARLLQQEVLQNVSDAESCYLVHTLLEFYLKTVFKNYHNRTVEVRTLKSFSTLANNFVLIVSQLQPSQENEMFSIRDSAHRRFLLFRRAFKQLDVEAALTKALGEVDILLTWMQKFYKL

Results are given in words; binding and its absence hold for the method and conditions named. Binding seen in cells or lysates may run through a third protein. Binding can be weak; no strength is given. Where a sequence is shown, tags or fusion partners need not be part of it.
